From the supplement of paper PMC12067093, “Discovery and optimisation of a covalent ligand for TRIM25 and its application to targeted protein ubiquitination” (Chemical Science, 2025)
The other results are listed elsewhere or left out.

Compound: CC1Cc2ccccc2N1C(=O)C1CCCN(C1)C(=O)CCl (mixture of isomers) [TRIM25 ligand 11 (diastereomer mixture)]
Assay: probe-labelled cysteine peptide fold change vs DMSO (competition) (log2 fold change); higher = less target engagement (more negative = stronger competition)
Conditions: THP-1, incubation time: 4 h
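Note: competitive chemoproteomic profiling in live THP-1 cells with an iodoacetamide desthiobiotin (IA-DTB) probe, comparing probe-labelled peptide intensities in compound-treated cells against DMSO-treated controls.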

| Target | probe-labelled cysteine peptide fold change (10 µM) | probe-labelled cysteine peptide fold change (50 µM) |
| --- | --- | --- |
| CTPS1_P17812_218_CSNPLDTSVK (UniProt P17812) | 0.0718 | 0.108 |
| DCPS_Q96C86_222_WNQQQLDDLYLIAICHR (UniProt Q96C86) | -0.0383 | 0.108 |
| DCAF12L1_Q5VU92_345_QDQQNIRPLCSR (UniProt Q5VU92) | 0.2 | 0.0874 |
| DCAF1_Q9Y4B6_69_ADPECMLGHLLR (UniProt Q9Y4B6) | 0.0618 | -0.0373 |
| DCP2_Q8IU60_140_VNKEEAPHDCAAR (UniProt Q8IU60) | -0.229 | -0.311 |
| CTSO_P43234_204_AQNGLCHYFSGSHSGFSIK (UniProt P43234) | 0.363 | -0.212 |
| DAXX_Q9UER7_131_LYVYINELCTVLK (UniProt Q9UER7) | 0.0969 | -0.159 |
| CXorf38_Q8TB03_300_LDSLCLHQK (UniProt Q8TB03) | -0.0133 | -0.0165 |
| DBNL_Q9UJU6-3_256_NEQGSTCASLQESAVHPR (UniProt Q9UJU6) | -0.0708 | -0.219 |
| DCAF12_Q5T6F0_253_EDTNPDNCK (UniProt Q5T6F0) | -0.0756 | -0.0409 |
| CWF19L1_Q69YN2_426_SHHLQLQVIPVPISCSTTDDIK (UniProt Q69YN2) | 0.261 | -0.35 |
| CTSZ_Q9UBR2_296_YNLAIEEHCTFGDPIV (UniProt Q9UBR2) | 0.0178 | -0.374 |
| DCP2_Q8IU60_73_AVFSHCPFLLPQGEDVEK (UniProt Q8IU60) | 0.477 | 0.279 |
| DCAF12_Q5T6F0_141_DREPGGVTQQGCGIHAIELNPSR (UniProt Q5T6F0) | -0.0652 | -0.0793 |
| DAZAP1_Q96EP5_63_FKDPNCVGTVLASR (UniProt Q96EP5) | 0.11 | 0.17 |
| DBR1_Q9UK59_36+37_GPGPVDLLLCCGDFQAVR (UniProt Q9UK59) | -0.111 | 0.0553 |
| CXorf38_Q8TB03_133_QGPEECDAVALLSLINSCDHFVVDRK (UniProt Q8TB03) | 0.416 | 0.18 |
| CUL3_Q13618_298_TEDLGCMYK (UniProt Q13618) | 0.0181 | -0.0783 |
| DCAF6_Q58WW2_190_EDCKDDILINCR (UniProt Q58WW2) | -0.00753 | 0.159 |
| CTSS_P25774_224_AATCSK (UniProt P25774) | -0.0306 | -0.288 |
| DAPK1_P53355_484_YGHADVAQLLCSFGSNPNIQDKEEETPLHCAAWHGYYSVAK (UniProt P53355) | 0.091 | -0.153 |

| Target | probe-labelled cysteine peptide fold change (10 µM) | probe-labelled cysteine peptide fold change (50 µM) |
| --- | --- | --- |
| DCPS_Q96C86_37_EAGVGNGTCAPVRLPFSGFR (UniProt Q96C86) | -0.404 | -0.396 |
| CTR9_Q6PD62_231_CVGALVGLAVLELNNK (UniProt Q6PD62) | -0.0196 | -0.00394 |
| CTU1_Q7Z7A3_144_SCCTFCGVLR (UniProt Q7Z7A3) | -0.0921 | -0.206 |
| CYLD_Q9NQC7_106_FTELLLAITNCEER (UniProt Q9NQC7) | 0.0319 | -0.0637 |
| DCAF1_Q9Y4B6_521_HTCMALR (UniProt Q9Y4B6) | 0.139 | 0.132 |
| DARS2_Q6PI48_202_MREYLCNLHGFVDIETPTLFKR (UniProt Q6PI48) | -0.272 | -0.129 |
| CYLD_Q9NQC7_252_VGETIESGTVIFCDVLPGK (UniProt Q9NQC7) | 0.00286 | -0.0418 |
| DCAF10_Q5QP82_412_NSLEVVTPEVLGESDHGNCITSLQLHPK (UniProt Q5QP82) | 0.152 | -0.291 |
| CTSA_P10619_240_LWSSLQTHCCSQNK (UniProt P10619) | 0.0876 | 0.0379 |
| CUL7_Q14999_1201_AAFLLALQNGCAGALLK (UniProt Q14999) | -0.304 | -0.245 |
| DCAF13_Q9NV06_342_YIMCGSDEMNIR (UniProt Q9NV06) | 0.0404 | 0.207 |
| CUL1_Q13616_496_QACGFEYTSK (UniProt Q13616) | -0.0802 | -0.0347 |
| DCAF6_Q58WW2_593_SCGVPEESASSEK (UniProt Q58WW2) | -0.113 | -0.204 |
| CTPS1_P17812_176_ENFCNIHVSLVPQPSSTGEQK (UniProt P17812) | 0.174 | -0.085 |
| DCAF8_Q5TAQ9_483_GGVVNCLEPHPHLPVLATSGLDHDVK (UniProt Q5TAQ9) | -0.0398 | -0.0215 |
| CUL7_Q14999_60_RGDEGDGGSGQVDCK (UniProt Q14999) | -0.0193 | -0.166 |
| CTSZ_Q9UBR2_179_ECHAIR (UniProt Q9UBR2) | -0.116 | 0.567 |
| DBR1_Q9UK59_8+9_VAVAGCCHGELDK (UniProt Q9UK59) | -0.0439 | -0.172 |
| CTSG_P08311_207_GDSGGPLLCNNVAHGIVSYGK (UniProt P08311) | -0.0408 | -0.112 |
| CYTH4_Q9UIA0_329_KPFCLELYNPSCR (UniProt Q9UIA0) | 0.138 | 0.14 |
| DARS_P14868_349_FLEPTLRLEYCEALAMLR (UniProt P14868) | -0.495 | -0.308 |
